Test results: patent publication US20110008433A1, “Herbal Composition for Osteoarthritis” (priority 2009, published 2011)

Test: Total phenolics as gallic acid equivalent (Folin-Ciocalteu)

| Compound | G.A. equivalent (0.01 mM) [mM] | G.A. equivalent (0.03 mM) [mM] | G.A. equivalent (0.10 mM) [mM] |
| --- | --- | --- | --- |
| O=C1O[C@H]([C@@H](O)CO)C(O)=C1O [Vitamin C, vitamin C] | 1.15 | 2.34 | 7.20 |
| vitamin E | 1.05 | 2.36 | 3.71 |
